Some of the results follow.
These targets were tested with COc1cc(Nc2ncc3c(n2)-c2ccc(Cl)cc2C(c2c(F)cccc2OC)=NC3)ccc1C(=O)O [alisertib] (assay: log2 fold change, soluble protein after heating vs DMSO (PISA); higher = thermal stabilisation; K562 cells, 10 uM, 30 min; active = over 0.2 and 3.5 SD of the protein, either way, in both replicates (recomputed)).
Method in brief: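 Aliquots of K562 cells (2×10^6 cells/mL) treated with 10 μM compound for 30 min were heated for 3 min over 48°C-58°C. After pooling and extraction in PBS with 0.5% NP-40 at 4°C, soluble protein from a 21,000xg, 90 min spin was quantified by TMTpro 16plex LC-MS/MS with channel sums equalised. Thermal stability is expressed against control samples, from duplicates, as a log2 fold change.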

The chains behind the UniProt entries cited, without tags or fusion partners. Where a name states a change or a piece, a line headed by the entry shows the natural chain unless it says otherwise.
UniProt Q96RS0: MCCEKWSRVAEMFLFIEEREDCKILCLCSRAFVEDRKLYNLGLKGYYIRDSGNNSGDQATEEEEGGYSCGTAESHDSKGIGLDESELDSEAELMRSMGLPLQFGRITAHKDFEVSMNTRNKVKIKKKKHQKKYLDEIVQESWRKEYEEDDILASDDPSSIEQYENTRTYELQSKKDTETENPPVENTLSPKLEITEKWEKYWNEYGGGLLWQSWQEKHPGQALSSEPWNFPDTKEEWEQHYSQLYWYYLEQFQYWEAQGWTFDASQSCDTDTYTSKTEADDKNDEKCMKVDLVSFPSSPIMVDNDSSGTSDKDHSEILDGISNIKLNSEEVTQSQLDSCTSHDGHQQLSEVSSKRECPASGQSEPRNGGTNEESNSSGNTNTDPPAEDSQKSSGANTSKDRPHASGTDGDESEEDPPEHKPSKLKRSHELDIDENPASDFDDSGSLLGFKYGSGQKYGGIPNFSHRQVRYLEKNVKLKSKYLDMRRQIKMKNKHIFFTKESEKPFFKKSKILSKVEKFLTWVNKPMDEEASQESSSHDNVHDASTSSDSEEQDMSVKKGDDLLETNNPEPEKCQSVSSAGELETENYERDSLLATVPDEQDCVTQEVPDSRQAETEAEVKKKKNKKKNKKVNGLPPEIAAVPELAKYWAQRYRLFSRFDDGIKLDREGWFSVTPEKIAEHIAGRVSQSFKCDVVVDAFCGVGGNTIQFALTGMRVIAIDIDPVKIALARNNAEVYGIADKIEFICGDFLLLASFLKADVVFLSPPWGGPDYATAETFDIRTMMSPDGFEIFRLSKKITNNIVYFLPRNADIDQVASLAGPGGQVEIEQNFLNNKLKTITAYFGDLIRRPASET
UniProt Q8NHU6: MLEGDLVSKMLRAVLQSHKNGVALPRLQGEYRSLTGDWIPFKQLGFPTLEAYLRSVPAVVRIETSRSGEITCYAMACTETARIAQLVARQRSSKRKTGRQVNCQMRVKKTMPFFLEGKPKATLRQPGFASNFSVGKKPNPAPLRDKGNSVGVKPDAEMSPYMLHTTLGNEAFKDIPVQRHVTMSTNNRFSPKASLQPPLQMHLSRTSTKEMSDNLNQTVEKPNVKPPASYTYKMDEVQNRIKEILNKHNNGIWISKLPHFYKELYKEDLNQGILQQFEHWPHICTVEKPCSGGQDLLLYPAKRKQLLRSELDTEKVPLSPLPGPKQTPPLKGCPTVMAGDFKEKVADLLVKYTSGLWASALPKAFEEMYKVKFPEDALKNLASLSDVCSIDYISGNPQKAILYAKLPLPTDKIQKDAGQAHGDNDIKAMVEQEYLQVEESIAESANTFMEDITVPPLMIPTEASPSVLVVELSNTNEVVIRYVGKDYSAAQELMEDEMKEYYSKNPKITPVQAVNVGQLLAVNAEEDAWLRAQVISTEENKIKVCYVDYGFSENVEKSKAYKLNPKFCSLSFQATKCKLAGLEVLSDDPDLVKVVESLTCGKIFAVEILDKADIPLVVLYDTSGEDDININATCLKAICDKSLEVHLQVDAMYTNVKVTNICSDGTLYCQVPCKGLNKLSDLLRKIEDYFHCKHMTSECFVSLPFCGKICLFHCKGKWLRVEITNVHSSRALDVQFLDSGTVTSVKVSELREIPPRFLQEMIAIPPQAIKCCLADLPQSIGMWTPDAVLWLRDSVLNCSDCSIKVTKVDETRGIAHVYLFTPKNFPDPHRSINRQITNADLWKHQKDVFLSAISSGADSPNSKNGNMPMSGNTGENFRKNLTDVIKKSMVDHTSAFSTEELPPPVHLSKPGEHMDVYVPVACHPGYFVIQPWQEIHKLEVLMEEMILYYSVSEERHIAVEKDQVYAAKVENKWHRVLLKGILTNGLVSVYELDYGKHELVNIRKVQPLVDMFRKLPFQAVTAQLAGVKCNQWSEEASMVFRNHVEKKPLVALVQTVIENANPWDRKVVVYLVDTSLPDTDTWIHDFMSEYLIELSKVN
UniProt Q96BZ9: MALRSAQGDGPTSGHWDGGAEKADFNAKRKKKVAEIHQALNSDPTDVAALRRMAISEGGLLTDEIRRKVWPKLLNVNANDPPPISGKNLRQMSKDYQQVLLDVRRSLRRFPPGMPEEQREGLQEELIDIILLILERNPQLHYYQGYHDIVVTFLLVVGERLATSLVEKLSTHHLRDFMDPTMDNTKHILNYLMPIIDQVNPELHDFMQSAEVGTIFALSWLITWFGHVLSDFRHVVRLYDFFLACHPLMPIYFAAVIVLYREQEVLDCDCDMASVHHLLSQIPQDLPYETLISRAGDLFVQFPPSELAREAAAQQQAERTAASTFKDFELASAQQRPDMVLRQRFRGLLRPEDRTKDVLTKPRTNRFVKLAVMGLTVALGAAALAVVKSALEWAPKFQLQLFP
UniProt Q15582: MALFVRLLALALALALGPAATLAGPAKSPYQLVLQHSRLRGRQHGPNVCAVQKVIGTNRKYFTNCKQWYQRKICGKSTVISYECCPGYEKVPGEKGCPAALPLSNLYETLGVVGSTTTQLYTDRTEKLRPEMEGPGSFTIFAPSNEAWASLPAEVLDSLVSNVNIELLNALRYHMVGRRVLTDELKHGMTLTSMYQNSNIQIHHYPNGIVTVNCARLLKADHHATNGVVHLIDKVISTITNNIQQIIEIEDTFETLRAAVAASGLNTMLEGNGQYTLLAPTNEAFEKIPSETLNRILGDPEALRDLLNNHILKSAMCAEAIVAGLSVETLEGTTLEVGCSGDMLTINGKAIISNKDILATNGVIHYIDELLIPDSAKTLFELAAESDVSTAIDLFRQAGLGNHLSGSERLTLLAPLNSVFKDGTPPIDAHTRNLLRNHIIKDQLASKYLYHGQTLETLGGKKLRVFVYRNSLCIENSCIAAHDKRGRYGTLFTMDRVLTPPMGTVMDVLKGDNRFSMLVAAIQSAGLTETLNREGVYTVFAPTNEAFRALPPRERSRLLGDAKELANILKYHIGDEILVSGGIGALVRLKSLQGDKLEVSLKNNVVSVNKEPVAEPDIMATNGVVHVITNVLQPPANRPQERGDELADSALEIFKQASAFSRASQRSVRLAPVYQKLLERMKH
UniProt P20226, whole entry, looked up: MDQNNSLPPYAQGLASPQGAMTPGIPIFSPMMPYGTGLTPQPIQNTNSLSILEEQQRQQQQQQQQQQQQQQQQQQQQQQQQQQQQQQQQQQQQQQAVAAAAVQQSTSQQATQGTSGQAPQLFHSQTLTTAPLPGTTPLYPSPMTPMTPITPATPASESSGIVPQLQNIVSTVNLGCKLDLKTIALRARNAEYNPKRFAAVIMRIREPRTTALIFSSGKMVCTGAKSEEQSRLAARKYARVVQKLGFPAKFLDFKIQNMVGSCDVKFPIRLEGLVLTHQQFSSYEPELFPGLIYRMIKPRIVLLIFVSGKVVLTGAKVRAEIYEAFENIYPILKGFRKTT
UniProt Q14186: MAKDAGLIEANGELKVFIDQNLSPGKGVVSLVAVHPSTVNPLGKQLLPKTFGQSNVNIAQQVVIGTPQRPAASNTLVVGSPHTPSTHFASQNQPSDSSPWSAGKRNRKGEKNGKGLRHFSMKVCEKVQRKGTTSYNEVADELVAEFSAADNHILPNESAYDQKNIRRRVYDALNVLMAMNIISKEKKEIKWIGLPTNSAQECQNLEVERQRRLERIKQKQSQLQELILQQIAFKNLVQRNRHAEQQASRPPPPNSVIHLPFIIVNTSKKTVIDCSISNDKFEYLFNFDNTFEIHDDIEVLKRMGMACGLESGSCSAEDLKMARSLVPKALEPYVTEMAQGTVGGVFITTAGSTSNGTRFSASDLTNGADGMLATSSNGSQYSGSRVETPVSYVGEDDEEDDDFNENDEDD
UniProt Q969Z0: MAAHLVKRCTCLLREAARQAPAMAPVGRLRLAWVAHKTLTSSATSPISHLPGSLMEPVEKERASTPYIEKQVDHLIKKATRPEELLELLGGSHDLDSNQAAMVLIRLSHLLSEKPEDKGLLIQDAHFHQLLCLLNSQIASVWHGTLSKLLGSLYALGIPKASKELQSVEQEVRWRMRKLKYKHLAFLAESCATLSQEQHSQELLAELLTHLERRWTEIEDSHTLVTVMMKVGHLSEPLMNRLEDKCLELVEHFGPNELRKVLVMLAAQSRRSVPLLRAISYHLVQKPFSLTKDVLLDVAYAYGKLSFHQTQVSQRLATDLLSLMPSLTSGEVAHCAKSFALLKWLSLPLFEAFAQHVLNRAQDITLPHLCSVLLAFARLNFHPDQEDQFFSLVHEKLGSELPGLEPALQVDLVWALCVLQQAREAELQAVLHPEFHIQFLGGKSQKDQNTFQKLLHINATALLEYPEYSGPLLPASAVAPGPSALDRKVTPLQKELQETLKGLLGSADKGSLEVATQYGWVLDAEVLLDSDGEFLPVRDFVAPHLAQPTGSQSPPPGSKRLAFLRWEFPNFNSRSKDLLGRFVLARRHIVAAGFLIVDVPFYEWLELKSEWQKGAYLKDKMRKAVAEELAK
UniProt Q8IWB9: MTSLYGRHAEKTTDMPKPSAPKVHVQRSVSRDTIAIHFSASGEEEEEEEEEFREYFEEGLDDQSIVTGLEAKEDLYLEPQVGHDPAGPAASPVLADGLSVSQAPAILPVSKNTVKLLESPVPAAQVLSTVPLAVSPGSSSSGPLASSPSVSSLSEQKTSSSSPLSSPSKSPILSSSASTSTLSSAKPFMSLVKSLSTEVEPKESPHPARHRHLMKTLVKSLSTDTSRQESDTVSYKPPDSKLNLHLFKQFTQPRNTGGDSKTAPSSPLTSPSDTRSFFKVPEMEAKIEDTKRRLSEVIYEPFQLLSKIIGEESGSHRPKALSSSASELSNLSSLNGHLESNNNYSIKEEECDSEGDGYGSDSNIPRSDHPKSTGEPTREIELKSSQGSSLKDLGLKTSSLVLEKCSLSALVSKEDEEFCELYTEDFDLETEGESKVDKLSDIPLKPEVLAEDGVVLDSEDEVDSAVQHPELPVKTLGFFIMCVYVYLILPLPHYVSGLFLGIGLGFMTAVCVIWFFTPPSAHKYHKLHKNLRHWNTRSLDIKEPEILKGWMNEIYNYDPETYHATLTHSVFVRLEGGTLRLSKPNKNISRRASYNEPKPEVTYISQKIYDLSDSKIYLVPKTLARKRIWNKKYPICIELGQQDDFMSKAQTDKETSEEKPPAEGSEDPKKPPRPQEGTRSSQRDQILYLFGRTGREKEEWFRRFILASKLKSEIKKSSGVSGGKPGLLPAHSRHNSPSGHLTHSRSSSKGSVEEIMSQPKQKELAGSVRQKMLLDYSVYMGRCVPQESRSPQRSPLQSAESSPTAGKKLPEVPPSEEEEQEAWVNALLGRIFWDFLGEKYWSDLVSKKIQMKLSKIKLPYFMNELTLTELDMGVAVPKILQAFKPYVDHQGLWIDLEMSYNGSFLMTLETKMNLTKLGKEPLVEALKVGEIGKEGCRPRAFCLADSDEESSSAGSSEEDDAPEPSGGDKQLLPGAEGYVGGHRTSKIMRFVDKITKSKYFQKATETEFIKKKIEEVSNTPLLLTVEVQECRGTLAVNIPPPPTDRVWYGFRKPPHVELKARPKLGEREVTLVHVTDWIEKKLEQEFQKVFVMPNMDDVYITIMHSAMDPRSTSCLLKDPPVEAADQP
UniProt Q9Y2W1: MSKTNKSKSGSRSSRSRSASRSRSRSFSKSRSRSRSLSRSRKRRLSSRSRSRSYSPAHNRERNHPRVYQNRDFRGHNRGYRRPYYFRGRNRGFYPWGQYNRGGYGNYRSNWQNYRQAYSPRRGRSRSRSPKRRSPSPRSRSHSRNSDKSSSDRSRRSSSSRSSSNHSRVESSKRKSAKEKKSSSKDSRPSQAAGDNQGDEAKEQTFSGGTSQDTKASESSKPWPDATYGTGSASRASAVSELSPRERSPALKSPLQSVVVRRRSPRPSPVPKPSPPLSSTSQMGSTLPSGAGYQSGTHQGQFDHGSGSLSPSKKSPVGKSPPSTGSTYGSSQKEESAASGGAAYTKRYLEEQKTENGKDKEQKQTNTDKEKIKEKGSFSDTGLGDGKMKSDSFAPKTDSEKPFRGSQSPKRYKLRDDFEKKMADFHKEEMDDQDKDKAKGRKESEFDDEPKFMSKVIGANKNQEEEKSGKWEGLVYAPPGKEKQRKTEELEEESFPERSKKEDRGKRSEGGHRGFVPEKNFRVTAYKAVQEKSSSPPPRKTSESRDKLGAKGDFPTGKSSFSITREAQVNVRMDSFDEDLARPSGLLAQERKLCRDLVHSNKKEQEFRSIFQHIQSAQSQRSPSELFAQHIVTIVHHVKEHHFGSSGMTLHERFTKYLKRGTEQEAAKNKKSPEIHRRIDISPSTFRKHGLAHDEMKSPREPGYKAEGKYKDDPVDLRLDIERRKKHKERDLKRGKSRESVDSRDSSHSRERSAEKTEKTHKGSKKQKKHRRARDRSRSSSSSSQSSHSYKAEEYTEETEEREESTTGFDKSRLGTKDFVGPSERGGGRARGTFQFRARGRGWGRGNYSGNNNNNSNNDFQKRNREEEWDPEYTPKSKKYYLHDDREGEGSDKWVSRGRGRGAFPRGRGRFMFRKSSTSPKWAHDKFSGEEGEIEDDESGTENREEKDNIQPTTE

log2 fold change, inactive:
TERF2IP (UniProt Q9NYB0) -0.032
TBC1D23 (UniProt Q9NUY8) 0.023
TFAM (UniProt Q00059) -0.1
TGS1 (UniProt Q96RS0) -0.108
TENT5C (UniProt Q5VWP2) 0
TIPRL (UniProt O75663) 0.014
TBC1D5 isoform 2 (UniProt Q92609) -0.021
TDRD7 (UniProt Q8NHU6) 0.152
TBC1D20 isoform 3 (UniProt Q96BZ9) -0.089
TGFBI (UniProt Q15582) -0.012
TJP1 (UniProt Q07157) -0.059
TFPI (UniProt P10646) -0.095
TBP (UniProt P20226) 0.148
TFDP1 (UniProt Q14186) -0.027
TBRG4 (UniProt Q969Z0) 0.032
TJP2 isoform 7 (UniProt Q9UDY2) -0.151
THYN1 (UniProt Q9P016) -0.065
TBC1D2B (UniProt Q9UPU7) -0.06
TBCD (UniProt Q9BTW9) -0.078
TBK1 (UniProt Q9UHD2) 0.064
TBC1D24 (UniProt Q9ULP9) -0.102
TK2 isoform 6 (UniProt O00142) 0.046
TEX2 isoform 2 (UniProt Q8IWB9) -0.048
THRAP3 (UniProt Q9Y2W1) -0.095
THADA (UniProt Q6YHU6) -0.022
TCOF1 isoform 6 (UniProt Q13428) -0.263
TIMM44 (UniProt O43615) -0.021
TIMM29 (UniProt Q9BSF4) 0.01
TK1 (UniProt P04183) -0.034
TIMM21 (UniProt Q9BVV7) 0.054
TEX30 (UniProt Q5JUR7) 0.029
TKT, A0A0B4J1R6 0.252
TCF25 (UniProt Q9BQ70) 0.147
THAP9 (UniProt Q9H5L6) -0.068

Fetched one by one from the entries so far, 2 records:
log2 fold change, inactive:
TIPRL (UniProt O75663) 0.014
TGFBI (UniProt Q15582) -0.012

Reference: the supplement of paper PMC10849652
